{"source": "PubChem BioAssay AID504764 | Drosophila RNAi Screening Center | 2011", "screen": "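Genome-wide screen for regulators of Notch-driven gene expression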 (primary screen)", "system": "Drosophila Kc167 cells", "reagents": "long dsRNA against Drosophila genes", "timing": "about 5 days (4 days dsRNA, then 24 h after transfection)", "challenge": "transfection of constitutively active membrane-tethered Notch lacking the extracellular domain, read 24 h later", "detection": "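Light from a Notch-responsive E(spl)m3 luciferase reporter under active Notch, with control-promoter and no-Notch reporter wells to normalise; raw counts from paired wells a and b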", "direction": "induced reporter light, run 1, well a and induced reporter light, run 1, well b: higher = more light from the Notch target reporter with active Notch; control promoter light, run 1, well a and control promoter light, run 1, well b: higher = more light from the viral control promoter (cell number, transfection, viability); uninduced reporter light, run 1, well a: higher = more light from the Notch target reporter without active Notch", "rule for the call": "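Hit if the duplicate-averaged log2 ratio of induced to control-promoter light gives a plate-wise z beyond ±2, or induced to uninduced beyond ±1.8; weak-control or discordant-duplicate wells dropped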", "calls": "active = modifier hit (raised or lowered Notch signal); inactive = not a hit", "note": "In all, the deposit lists about 22,000 reagents; shown is a random part of those that have a named target and a result. In the full data, 403 (1.9%) got an active call. 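Unnormalised raw counts per well; ratio z-scores behind the hit calls and whether each hit raises or lowers signal are not deposited.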 The record does not give: the amount of reagent."}
{"gene": "msd5 (mitotic spindle density 5)", "amplicon": "DRSC08560", "induced reporter light, run 1, well a": 1.20e5, "induced reporter light, run 1, well b": 98745, "control promoter light, run 1, well a": 2.06e5, "control promoter light, run 1, well b": 1.27e5, "uninduced reporter light, run 1, well a": 10160, "activity call": "inactive"}
{"gene": "PolA1 (DNA polymerase alpha subunit 1)", "amplicon": "DRSC16640", "induced reporter light, run 1, well a": 92920, "induced reporter light, run 1, well b": 1.20e5, "control promoter light, run 1, well a": 1.29e5, "control promoter light, run 1, well b": 1.63e5, "uninduced reporter light, run 1, well a": 10170, "activity call": "inactive"}
{"gene": "Mettl2 (Methyltransferase like 2)", "amplicon": "DRSC08398", "induced reporter light, run 1, well a": 62685, "induced reporter light, run 1, well b": 69360, "control promoter light, run 1, well a": 98270, "control promoter light, run 1, well b": 97685, "uninduced reporter light, run 1, well a": 5325, "activity call": "inactive"}
{"gene": "CG9588", "amplicon": "DRSC16504", "induced reporter light, run 1, well a": 2.56e5, "induced reporter light, run 1, well b": 2.47e5, "control promoter light, run 1, well a": 2.38e5, "control promoter light, run 1, well b": 2.43e5, "uninduced reporter light, run 1, well a": 20800, "activity call": "inactive"}
{"gene": "CG4577", "amplicon": "DRSC00658", "induced reporter light, run 1, well a": 1.32e5, "induced reporter light, run 1, well b": 1.21e5, "control promoter light, run 1, well a": 1.16e5, "control promoter light, run 1, well b": 59890, "uninduced reporter light, run 1, well a": 10095, "activity call": "inactive"}
{"gene": "Psc (Posterior sex combs)", "amplicon": "DRSC07518", "induced reporter light, run 1, well a": 1.08e5, "induced reporter light, run 1, well b": 1.13e5, "control promoter light, run 1, well a": 1.17e5, "control promoter light, run 1, well b": 1.12e5, "uninduced reporter light, run 1, well a": 9720, "activity call": "inactive"}
{"gene": "Upf1 (Upf1 RNA helicase)", "amplicon": "DRSC19667", "induced reporter light, run 1, well a": 1.59e5, "induced reporter light, run 1, well b": 1.88e5, "control promoter light, run 1, well a": 3.63e5, "control promoter light, run 1, well b": 3.54e5, "uninduced reporter light, run 1, well a": 15600, "activity call": "active"}
{"gene": "pum (pumilio)", "amplicon": "DRSC12722", "induced reporter light, run 1, well a": 1.02e5, "induced reporter light, run 1, well b": 1.50e5, "control promoter light, run 1, well a": 1.26e5, "control promoter light, run 1, well b": 1.12e5, "uninduced reporter light, run 1, well a": 10500, "activity call": "inactive"}
{"gene": "pum (pumilio)", "amplicon": "DRSC12726", "induced reporter light, run 1, well a": 2.11e5, "induced reporter light, run 1, well b": 2.21e5, "control promoter light, run 1, well a": 2.64e5, "control promoter light, run 1, well b": 2.48e5, "uninduced reporter light, run 1, well a": 15930, "activity call": "inactive"}
{"gene": "pum (pumilio)", "amplicon": "DRSC17037", "induced reporter light, run 1, well a": 95155, "induced reporter light, run 1, well b": 91965, "control promoter light, run 1, well a": 78020, "control promoter light, run 1, well b": 57765, "uninduced reporter light, run 1, well a": 6870, "activity call": "inactive"}
{"gene": "pum (pumilio)", "amplicon": "DRSC17038", "induced reporter light, run 1, well a": 94790, "induced reporter light, run 1, well b": 96995, "control promoter light, run 1, well a": 76980, "control promoter light, run 1, well b": 72620, "uninduced reporter light, run 1, well a": 5055, "activity call": "inactive"}
{"gene": "pum (pumilio)", "amplicon": "DRSC22794", "activity call": "inactive"}
{"gene": "Nrg (Neuroglian)", "amplicon": "DRSC17573", "induced reporter light, run 1, well a": 79045, "induced reporter light, run 1, well b": 69065, "control promoter light, run 1, well a": 94175, "control promoter light, run 1, well b": 82130, "uninduced reporter light, run 1, well a": 5745, "activity call": "inactive"}
{"gene": "Nrg (Neuroglian)", "amplicon": "DRSC18688", "induced reporter light, run 1, well a": 1.59e5, "induced reporter light, run 1, well b": 1.41e5, "control promoter light, run 1, well a": 2.19e5, "control promoter light, run 1, well b": 2.30e5, "uninduced reporter light, run 1, well a": 14742, "activity call": "inactive"}
{"gene": "MsR1 (Myosuppressin receptor 1)", "amplicon": "DRSC08615", "induced reporter light, run 1, well a": 1.20e5, "induced reporter light, run 1, well b": 1.01e5, "control promoter light, run 1, well a": 1.76e5, "control promoter light, run 1, well b": 1.98e5, "uninduced reporter light, run 1, well a": 7295, "activity call": "inactive"}
{"gene": "dpn (deadpan)", "amplicon": "DRSC07605", "induced reporter light, run 1, well a": 1.98e5, "induced reporter light, run 1, well b": 2.05e5, "control promoter light, run 1, well a": 2.29e5, "control promoter light, run 1, well b": 2.19e5, "uninduced reporter light, run 1, well a": 15055, "activity call": "inactive"}
{"gene": "CG3638", "amplicon": "DRSC18533", "induced reporter light, run 1, well a": 62045, "induced reporter light, run 1, well b": 54495, "control promoter light, run 1, well a": 83755, "control promoter light, run 1, well b": 98760, "uninduced reporter light, run 1, well a": 6860, "activity call": "inactive"}
{"gene": "CG11779", "amplicon": "DRSC14384", "induced reporter light, run 1, well a": 42505, "induced reporter light, run 1, well b": 59630, "control promoter light, run 1, well a": 73330, "control promoter light, run 1, well b": 74355, "uninduced reporter light, run 1, well a": 4425, "activity call": "inactive"}

Active calls, among the entries above:
{"gene": "Upf1 (Upf1 RNA helicase)", "amplicon": "DRSC19667", "induced reporter light, run 1, well a": 1.59e5, "induced reporter light, run 1, well b": 1.88e5, "control promoter light, run 1, well a": 3.63e5, "control promoter light, run 1, well b": 3.54e5, "uninduced reporter light, run 1, well a": 15600, "activity call": "active"}
